Values from PubChem BioAssay AID1508597 (Cure First, 2020).

Test: 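Survival screen with siRNA in ovarian cancer cells derived from patients, with or without rucaparib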 (primary screen)
System: human ovarian carcinoma lines grown from tumours: OCI-P5x (papillary serous) and OCI-C5x (clear cell)
Knock-down reagent: siRNA pool against human genes, 1.25 pmol siRNA per well
Timing: 72 h or 96 h, depending on the cell culture
Challenge: rucaparib 20 µM (about IC30) or vehicle, present until read-out
Rucaparib or vehicle: Vehicle
Cell line: OCI-P5x (serous)
Read-out: 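ATP luminescence measured at 72 or 96 h according to the culture, then normalised and expressed as percent viability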
Scale: viability, normalised: higher = more viable cells remaining
Rule for the call: 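Active when normalised viability falls below 80 percent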
Meaning of the calls: active = viability under 80%; inactive = viability 80% or more
Shown is an unselected part of the about 2,100 reagents, under one of the conditions tested. 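Calls flag viability under 80% in either arm, not effects specific to rucaparib; the reference for percent is not stated.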 A number with no mark means an inactive call. Reagent sequences are not shown. Not given: the 100% reference.

{"gene": "CRAMP1", "technical replicate": "1", "viability, normalised (%)": "73.5 (active)"}
{"gene": "CRAMP1", "technical replicate": "2", "viability, normalised (%)": "60 (active)"}
{"gene": "CRAMP1", "technical replicate": "3", "viability, normalised (%)": "76.5 (active)"}
{"gene": "SIRT3", "technical replicate": "1", "viability, normalised (%)": "46.1 (active)"}
{"gene": "SIRT3", "technical replicate": "2", "viability, normalised (%)": "47.8 (active)"}
{"gene": "SIRT3", "technical replicate": "3", "viability, normalised (%)": "66.3 (active)"}
{"gene": "POLG2", "technical replicate": "1", "viability, normalised (%)": 134}
{"gene": "POLG2", "technical replicate": "2", "viability, normalised (%)": 137}
{"gene": "POLG2", "technical replicate": "3", "viability, normalised (%)": 123}
{"gene": "FGF19", "technical replicate": "1", "viability, normalised (%)": "66.3 (active)"}
{"gene": "FGF19", "technical replicate": "2", "viability, normalised (%)": "78.4 (active)"}
{"gene": "FGF19", "technical replicate": "3", "viability, normalised (%)": "71.8 (active)"}
{"gene": "STK38L", "technical replicate": "1", "viability, normalised (%)": "61.9 (active)"}
{"gene": "STK38L", "technical replicate": "2", "viability, normalised (%)": 87}
{"gene": "STK38L", "technical replicate": "3", "viability, normalised (%)": "65.6 (active)"}
{"gene": "PMS1", "technical replicate": "1", "viability, normalised (%)": "76.9 (active)"}
{"gene": "PMS1", "technical replicate": "2", "viability, normalised (%)": "78.9 (active)"}
{"gene": "PMS1", "technical replicate": "3", "viability, normalised (%)": "74.9 (active)"}
{"gene": "STK40", "technical replicate": "1", "viability, normalised (%)": 86.6}
{"gene": "STK40", "technical replicate": "2", "viability, normalised (%)": 93}
{"gene": "STK40", "technical replicate": "3", "viability, normalised (%)": 84.2}
{"gene": "HM13", "technical replicate": "1", "viability, normalised (%)": 86}
{"gene": "HM13", "technical replicate": "2", "viability, normalised (%)": 99}
{"gene": "HM13", "technical replicate": "3", "viability, normalised (%)": "69.1 (active)"}
{"gene": "ACVRL1", "technical replicate": "1", "viability, normalised (%)": "78.2 (active)"}
{"gene": "ACVRL1", "technical replicate": "2", "viability, normalised (%)": "73.4 (active)"}
{"gene": "ACVRL1", "technical replicate": "3", "viability, normalised (%)": "68.2 (active)"}
{"gene": "POLR2K", "technical replicate": "1", "viability, normalised (%)": 81}
{"gene": "POLR2K", "technical replicate": "2", "viability, normalised (%)": 87.9}
{"gene": "POLR2K", "technical replicate": "3", "viability, normalised (%)": 101}
{"gene": "PALS2", "technical replicate": "1", "viability, normalised (%)": "69.5 (active)"}
{"gene": "PALS2", "technical replicate": "2", "viability, normalised (%)": "51.4 (active)"}
{"gene": "PALS2", "technical replicate": "3", "viability, normalised (%)": "49.3 (active)"}
{"gene": "SLC22A12", "technical replicate": "1", "viability, normalised (%)": "54.4 (active)"}
{"gene": "SLC22A12", "technical replicate": "2", "viability, normalised (%)": "71.7 (active)"}
{"gene": "SLC22A12", "technical replicate": "3", "viability, normalised (%)": 81.3}
{"gene": "NRBP2", "technical replicate": "1", "viability, normalised (%)": "74.1 (active)"}
{"gene": "NRBP2", "technical replicate": "2", "viability, normalised (%)": "53.7 (active)"}
{"gene": "NRBP2", "technical replicate": "3", "viability, normalised (%)": "64.3 (active)"}
{"gene": "CSNK1A1L", "technical replicate": "1", "viability, normalised (%)": "58.5 (active)"}
{"gene": "CSNK1A1L", "technical replicate": "2", "viability, normalised (%)": 81.2}
{"gene": "CSNK1A1L", "technical replicate": "3", "viability, normalised (%)": "63.5 (active)"}

Reformatted: 4 of the entries above.
gene	technical replicate	viability, normalised (%)
CRAMP1	2	60 (active)
CRAMP1	3	76.5 (active)
SIRT3	1	46.1 (active)
SIRT3	2	47.8 (active)
